This test deals with Low Density Lipoprotein Receptor (LDLR), recombinant (UniProt P01130). Kind of test: SPR, LDLR immobilized on CM5 chip, 1 µM peptide with or without 25 µM DMPC.

Results are given in words; binding and its absence hold for the method and conditions named. Some results given as binding are weak or reduced against the parent protein; the word gives no strength.

For the molecule HLRKLRKRLLRDGDKLCDRLAEYCARAKEAFDR [T-029], the binding entry is “binds”.
In the case of EELRVRLASHLRKLRKRLLRDADDLQKRLAVYQAGAREGAERGLSAIRER [T-009] it was “binds”.

B1: T-013 (peptide)
peptide: TRARLSKELQAAQARLGADMEDVRGRLVQYRGEVQAMLGQSTEELRVRLASHLRKLRKRLLRDADDLQKRLAVYQA
As to B1, the binding result is recorded as “binds”.
Under HLRKLRKRLLRPPEQAQQIRLQAEAFQARLKSWFE [T-018] stands “binds”; under EELRVRLASHLRKLRKRLLRDADDLQKRLAVYQA [T-007], “binds”.

These data come from patent US20260115250A1, “METHODS OF TREATING AGE-RELATED MACULAR DEGENERATION” (Character Biosciences, Inc., priority 2022, published 2026).
